## Cleaved PARP after 72 h of treatment

Source: doi:10.1371/journal.pone.0140310, primary screening data, rounded.

Drugs:
vatalanib (10 µM): Clc1ccc(Nc2nnc(Cc3ccncc3)c3ccccc23)cc1
NVP-TAE684 (0.4 µM): COc1cc(N2CCC(N3CCN(C)CC3)CC2)ccc1Nc1ncc(Cl)c(Nc2ccccc2S(=O)(=O)C(C)C)n1
fludarabine (1 µM): Nc1nc(F)nc2c1ncn2[C@@H]1O[C@H](CO)[C@@H](O)[C@@H]1O
nilotinib (1 µM): Cc1cn(-c2cc(NC(=O)c3ccc(C)c(Nc4nccc(-c5cccnc5)n4)c3)cc(C(F)(F)F)c2)cn1
pazopanib (2 µM): Cc1ccc(Nc2nccc(N(C)c3ccc4c(C)n(C)nc4c3)n2)cc1S(N)(=O)=O

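The test systems are human melanoma cell lines, treated with two drugs together for 72 h and then stained and imaged. Each value is the cleaved-PARP-positive fraction of nuclei relative to DMSO-treated wells, in %, so that 100 equals the control and higher values mean more apoptosis. Concentrations were fixed for each drug; these are the higher of two levels. These are primary screening values without error estimates. Basal and induced levels differ widely between cell lines.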 This is part of the screen, not chosen by result. A dash means that no value is listed here.

| Cell line | NVP-TAE684 + vatalanib | nilotinib + vatalanib | fludarabine + pazopanib | NVP-TAE684 + fludarabine | fludarabine + nilotinib | vatalanib + fludarabine | nilotinib + pazopanib |
|---|---|---|---|---|---|---|---|
| WM451Lu | 103 | 76.8 | 108 | 148 | 51.7 | 381 | 72.4 |
| SK-MEL-30 | 149 | 46.4 | 1050 | 877 | 1820 | 1280 | 88.9 |
| WM1745 | - | 148 | 111 | - | 123 | 140 | 105 |
| A2058 | 274 | 213 | 128 | 208 | 126 | 161 | 55.2 |
| MeWo | 211 | 158 | 97.8 | 62.1 | 134 | 141 | 72.0 |
| LB2518-MEL | 166 | 31.0 | 75.9 | 65.5 | 63.8 | 180 | 66.5 |
| COLO 800 | 141 | 123 | 107 | 74.1 | 77.0 | 129 | 132 |
| WM3526 | 899 | 208 | 2330 | 4220 | 2580 | 2960 | 113 |
| A101D | 214 | 82.5 | 60.5 | 81.2 | 68.9 | 84.7 | 139 |
| COLO 829 | 245 | 150 | 114 | 122 | 78.3 | 212 | 60.8 |
| WM115 | 523 | 138 | 132 | 62.2 | 75.7 | 237 | 48.4 |
| WM1716 | 240 | 213 | 124 | 72.5 | 141 | 93.6 | 104 |
| IST-MEL1 | 107 | 69.3 | 217 | 81.3 | 187 | 144 | 225 |
| UACC-62 | 108 | 288 | 162 | 130 | 239 | 270 | 230 |
| SK-MEL-5 | 3250 | 202 | 3660 | 7710 | 4890 | 873 | 164 |
| RVH-421 | 63.6 | 297 | 151 | 86.5 | 164 | 134 | 167 |
| LOX IMVI | 471 | 148 | 147 | 130 | 66.0 | 170 | 112 |
| SK-MEL-28 | 211 | 121 | 2420 | 1280 | 8130 | 569 | 75.8 |
| UACC-257 | 19.2 | 95.4 | 5410 | 1860 | 4350 | 2260 | 44.0 |
| 501mel | 101 | - | - | 10600 | - | - | - |
| WM3619 | 130 | 135 | 109 | 99.1 | 110 | 116 | 97.9 |
| MEL-HO | 246 | 90.0 | 110 | 318 | 176 | 125 | 82.6 |
| G-361 | 115 | 144 | 128 | 170 | 208 | 257 | 126 |
| COLO 792 | 198 | 164 | 57.4 | 178 | 92.7 | 178 | 85.6 |
| C32 | 126 | 141 | 132 | 92.7 | 105 | 112 | 68.4 |
| A375 | 636 | 71.8 | 262 | 654 | 836 | 144 | 100 |
| MZ2-MEL | 109 | - | 54.4 | 150 | 143 | 140 | 60.4 |
| RPMI-7951 | 167 | 234 | 82.8 | 359 | 124 | 57.7 | 60.3 |
| IPC-298 | 80.0 | 42.1 | 125 | 75.7 | 59.1 | 253 | 90.1 |
| SK-MEL-2 | 203 | 113 | 1690 | 7330 | 1400 | 1170 | 62.3 |

For reference, 4 entries once more:

Cell line	NVP-TAE684 + vatalanib	nilotinib + vatalanib	fludarabine + pazopanib	NVP-TAE684 + fludarabine	fludarabine + nilotinib	vatalanib + fludarabine	nilotinib + pazopanib
SK-MEL-2	203	113	1690	7330	1400	1170	62.3
UACC-62	108	288	162	130	239	270	230
COLO 792	198	164	57.4	178	92.7	178	85.6
COLO 829	245	150	114	122	78.3	212	60.8